From patent US20110184148 (published 2011)

Tests used:
[1] = general procedure: Fmoc solid-phase peptide synthesis; CLEAR Amide resin; FastMoc method; DCC/HOBt for N-alkyl-Cys; HATU/DIEA for first residue; conditions: whole synthesis, scale 0.25 mmol
[2] = general procedure: Fmoc solid-phase peptide synthesis; Fmoc-CLEAR amide resin; FastMoc method; DCC/HOBt for N-alkyl-Cys; HATU/DIEA for first residue; conditions: whole synthesis

Substance: Ac-Val-Thr(GalGalNAc)-Ser-Ala-Pro-Asp-Thr-Arg-Pro-Ala-Pro-Gly-Ser-Thr(GalGal NAc)-Ala-Pro-Pro-Ala-His-Gly-SCH2CH2COOH
- isolated mass [1]: 18.9 mg
- isolated yield ([2]; scale 0.25 mmol): 14%

Substance: Ala-Thr-Glu-Val-Thr-Gly-His-Arg-Trp-Leu-SCH2CH2COOH
- isolated mass ([2]; scale 0.03 mmol): 0.15 mg
- isolated yield ([2]; scale 0.03 mmol): 7.0%

Substance: Glu-Val-Thr-Gly-His-Arg-Trp-Leu-Lys-Gly-SC6H5
- isolated mass [2]: 1.0 mg
- isolated yield ([2]; scale of the general procedure 0.03-0.25 mmol): 35%

Substance: Glu-Val-Thr-Gly-His-Arg-Trp-Leu-Lys-Gly-SCH2CH2COOH
- isolated mass ([2]; scale 0.03 mmol): 0.98 mg
- isolated yield ([2]; scale 0.03 mmol): 33%
- isolated mass ([2]; scale 0.05 mmol, run 1): 0.60 mg
- isolated yield ([2]; scale 0.05 mmol, run 1): 17%
- isolated mass ([2]; scale 0.05 mmol, run 2): 0.024 mg
- isolated yield ([2]; scale 0.05 mmol, run 2): 1.9%
- isolated mass ([2]; scale 0.1 mmol, run 1): 1.0 mg
- isolated yield ([2]; scale 0.1 mmol, run 1): 34%
- isolated mass ([2]; scale 0.1 mmol, run 2): 0.85 mg
- isolated yield ([2]; scale 0.1 mmol, run 2): 28%

Substance: Gly-Ser-Lys-11e-Leu-Leu-Thr-Cys(Acm)-Ser-Leu-Thr[(Gal-GlcNAc)-2-GalNAc]-Asp-S er-Ala-Thr-Glu-Val-Thr-Gly-His-Arg-Trp-Leu-Lys-Gly-SCH2CH2COOH
- isolated yield ([2]; scale 25 μmol): 5.5%

Substance: Gly-Ser-Lys-Ile-Leu-Leu-Thr-Cys(Acm)-Ser-Leu-Asn(GlcNAc2)-Asp-Ser-Ala-Thr-Gl u-Val-Thr-Gly-His-Arg-Trp-Leu-Lys-Gly-SCH2CH2COOH
- isolated yield ([2]; scale 0.1 mmol): 8.2%

Substance: Thr-Glu-Val-Thr-Gly-His-Arg-Trp-Leu-Lys-SCH2CH2COOH
- isolated mass ([2]; scale 0.03 mmol): 0.17 mg
- isolated yield ([2]; scale 0.03 mmol): 4.4%

Substance: Trp-Leu-Lys-Gly-Gly-Val-Val-Leu-Lys-Glu-SCH2CH2COOH
- isolated mass ([2]; scale 0.03 mmol): 0.21 mg
- isolated yield ([2]; scale 0.03 mmol): 5.3%
